According to article PMC5960688:
Results are given in words; binding and its absence hold for the method and conditions named. In cells and extracts the contact can be indirect. Tags and fused reporters may be left off the sequences shown.

Biological target: MtCAS31-YFP^N (Medicago truncatula)
Test: split reporter; BiFC with YFP^N and YFP^C fusions under the CaMV35S promoter, co-transformed into Arabidopsis protoplasts; 16 h incubation; confocal microscopy, 488 nm excitation

binding	Binder
no binding	MtLb2-YFP^C (protein, UniProt P27993 1-146) MGFTEKQEALVNSSWELFKQNPGNSVLFYTIILEKAPAAKGMFSFLKDTAGVQDSPKLQSHAEKVFGMVRDSAVQLRATGGVVLGDATLGAIHIQKGVVDPHFVVVKEALLKTIKEVSGDKWSEELSTAWEVAYDALAAAIKKAMG
no binding	MtLb1-YFP^C (protein, UniProt P27992 1-147) MSFTDKQEALVNSSYEAFKQNLSGYSVFFYTVILEKAPAAKGLFSFLKDSAGVQDSPQLQAHAEKVFGLVRDSASQLRATGGVVLGDAALGAIHIQKGVVDPHFVVVKEALLKTIKEAAGDKWSEELSTAWEVAYDALATEIKKAMS
